The effect of the compound repeats well; differences between the knockouts mostly do not.
Tested on: SKBR3
Assay: relative cell number vs DMSO control (72 h) (% of DMSO); higher = less growth inhibition (more cells)
Procedure: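 QMAP-Seq: a pool of 5 breast cancer cell lines (ZR-75-1, SKBR3, HCC-38, MDA-MB-231, BT-20), each carrying 12 doxycycline-inducible Cas9 sgRNA perturbations (11 knockouts plus non-targeting sgNT), was treated with compounds for 72 h at four 10-fold doses (10 nM-10 uM or 1 nM-1 uM range). Barcodes were amplified and sequenced, and cell number was interpolated from 293T spike-in standard curves. The result is expressed as % of the median of DMSO wells. Two biological replicates.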

COc1cc2nc(N3CCCN(C)CC3)nc(NC3CCN(Cc4ccccc4)CC3)c2cc1OC
Details | relative cell number
sgRNA knockout: sgATF3, 10 nM | 97.1
sgRNA knockout: sgATF3, 100 nM | 124
sgRNA knockout: sgATF3, 1000 nM | 82
sgRNA knockout: sgATF3, 10000 nM | 2.96
sgRNA knockout: sgATF4, 10 nM | 102
sgRNA knockout: sgATF4, 100 nM | 98.2
sgRNA knockout: sgATF4, 1000 nM | 84.4
sgRNA knockout: sgATF4, 10000 nM | 4.12
sgRNA knockout: sgATF6, 10 nM | 85.7
sgRNA knockout: sgATF6, 100 nM | 89.9
sgRNA knockout: sgATF6, 1000 nM | 95.8
sgRNA knockout: sgATF6, 10000 nM | 4.8
sgRNA knockout: sgATG7, 10 nM | 82.9
sgRNA knockout: sgATG7, 100 nM | 105
sgRNA knockout: sgATG7, 1000 nM | 75.1
sgRNA knockout: sgATG7, 10000 nM | 4.07
sgRNA knockout: sgERN1, 10 nM | 86.8
sgRNA knockout: sgERN1, 100 nM | 97.6
sgRNA knockout: sgERN1, 1000 nM | 102
sgRNA knockout: sgERN1, 10000 nM | 6.09
sgRNA knockout: sgHSF1, 10 nM | 97.6
sgRNA knockout: sgHSF1, 100 nM | 114
sgRNA knockout: sgHSF1, 1000 nM | 89.4
sgRNA knockout: sgHSF1, 10000 nM | 3.64
sgRNA knockout: sgHSF2, 10 nM | 95.25
sgRNA knockout: sgHSF2, 100 nM | 97.7
sgRNA knockout: sgHSF2, 1000 nM | 72.5
sgRNA knockout: sgHSF2, 10000 nM | 4.13
sgRNA knockout: sgKEAP1, 10 nM | 105
sgRNA knockout: sgKEAP1, 100 nM | 82.3
sgRNA knockout: sgKEAP1, 1000 nM | 80.9
sgRNA knockout: sgKEAP1, 10000 nM | 3.76
sgRNA knockout: sgNFE2L2, 10 nM | 107
sgRNA knockout: sgNFE2L2, 100 nM | 95.8
sgRNA knockout: sgNFE2L2, 1000 nM | 90.6
sgRNA knockout: sgNFE2L2, 10000 nM | 4.97
sgRNA knockout: sgSLC35F2, 10 nM | 84.1
sgRNA knockout: sgSLC35F2, 100 nM | 91.8
sgRNA knockout: sgSLC35F2, 1000 nM | 77.3
sgRNA knockout: sgSLC35F2, 10000 nM | 2.52
sgRNA knockout: sgXBP1, 10 nM | 92.9
sgRNA knockout: sgXBP1, 100 nM | 109.1
sgRNA knockout: sgXBP1, 1000 nM | 97.7
sgRNA knockout: sgXBP1, 10000 nM | 2.61

Cc1ccc(Nc2nccc(N(C)c3ccc4c(C)n(C)nc4c3)n2)cc1S(N)(=O)=O [Pazopanib]
Details | relative cell number
sgRNA knockout: sgATF3, 10 nM | 85.4
sgRNA knockout: sgATF3, 100 nM | 71.8
sgRNA knockout: sgATF3, 1000 nM | 108
sgRNA knockout: sgATF3, 10000 nM | 45
sgRNA knockout: sgATF4, 10 nM | 99.8
sgRNA knockout: sgATF4, 100 nM | 83.6
sgRNA knockout: sgATF4, 1000 nM | 93.61
sgRNA knockout: sgATF4, 10000 nM | 62.3
sgRNA knockout: sgATF6, 10 nM | 102
sgRNA knockout: sgATF6, 100 nM | 88.3
sgRNA knockout: sgATF6, 1000 nM | 87.1
sgRNA knockout: sgATF6, 10000 nM | 70.5
sgRNA knockout: sgATG7, 10 nM | 119
sgRNA knockout: sgATG7, 100 nM | 94.9
sgRNA knockout: sgATG7, 1000 nM | 83.9
sgRNA knockout: sgATG7, 10000 nM | 64.1
sgRNA knockout: sgERN1, 10 nM | 104.7
sgRNA knockout: sgERN1, 100 nM | 83.8
sgRNA knockout: sgERN1, 1000 nM | 101
sgRNA knockout: sgERN1, 10000 nM | 70.5
sgRNA knockout: sgHSF1, 10 nM | 91.09
sgRNA knockout: sgHSF1, 100 nM | 71.6
sgRNA knockout: sgHSF1, 1000 nM | 87.6
sgRNA knockout: sgHSF1, 10000 nM | 64.3
sgRNA knockout: sgHSF2, 10 nM | 85.6
sgRNA knockout: sgHSF2, 100 nM | 95.2
sgRNA knockout: sgHSF2, 1000 nM | 111
sgRNA knockout: sgHSF2, 10000 nM | 67.3
sgRNA knockout: sgKEAP1, 10 nM | 96.5
sgRNA knockout: sgKEAP1, 100 nM | 93.1
sgRNA knockout: sgKEAP1, 1000 nM | 91.62
sgRNA knockout: sgKEAP1, 10000 nM | 59.7
sgRNA knockout: sgNFE2L2, 10 nM | 89.6
sgRNA knockout: sgNFE2L2, 100 nM | 90.1
sgRNA knockout: sgNFE2L2, 1000 nM | 87.4
sgRNA knockout: sgNFE2L2, 10000 nM | 62.2
sgRNA knockout: sgSLC35F2, 10 nM | 91.57
sgRNA knockout: sgSLC35F2, 100 nM | 63.5
sgRNA knockout: sgSLC35F2, 1000 nM | 114
sgRNA knockout: sgSLC35F2, 10000 nM | 53.7
sgRNA knockout: sgXBP1, 10 nM | 83.6
sgRNA knockout: sgXBP1, 100 nM | 85.7
sgRNA knockout: sgXBP1, 1000 nM | 92.8
sgRNA knockout: sgXBP1, 10000 nM | 55.8

C=CCn1c(=O)c2cnc(Nc3ccc(N4CCN(C)CC4)cc3)nc2n1-c1cccc(C(C)(C)O)n1 [MK1775]
Details | relative cell number
sgRNA knockout: sgATF3, 10 nM | 85
sgRNA knockout: sgATF3, 100 nM | 115
sgRNA knockout: sgATF3, 1000 nM | 32.2
sgRNA knockout: sgATF3, 10000 nM | 17.6
sgRNA knockout: sgATF4, 10 nM | 85.6
sgRNA knockout: sgATF4, 100 nM | 94.6
sgRNA knockout: sgATF4, 1000 nM | 24.1
sgRNA knockout: sgATF4, 10000 nM | 13.6
sgRNA knockout: sgATF6, 10 nM | 84.8
sgRNA knockout: sgATF6, 100 nM | 81.7
sgRNA knockout: sgATF6, 1000 nM | 19
sgRNA knockout: sgATF6, 10000 nM | 12.7
sgRNA knockout: sgATG7, 10 nM | 70.6
sgRNA knockout: sgATG7, 100 nM | 96.7
sgRNA knockout: sgATG7, 1000 nM | 19.1
sgRNA knockout: sgATG7, 10000 nM | 15.4
sgRNA knockout: sgERN1, 10 nM | 105
sgRNA knockout: sgERN1, 100 nM | 89.2
sgRNA knockout: sgERN1, 1000 nM | 19.5
sgRNA knockout: sgERN1, 10000 nM | 12.7
sgRNA knockout: sgHSF1, 10 nM | 78.2
sgRNA knockout: sgHSF1, 100 nM | 96.6
sgRNA knockout: sgHSF1, 1000 nM | 24.7
sgRNA knockout: sgHSF1, 10000 nM | 11.7
sgRNA knockout: sgHSF2, 10 nM | 81.9
sgRNA knockout: sgHSF2, 100 nM | 93.5
sgRNA knockout: sgHSF2, 1000 nM | 24.4
sgRNA knockout: sgHSF2, 10000 nM | 11.1
sgRNA knockout: sgKEAP1, 10 nM | 93
sgRNA knockout: sgKEAP1, 100 nM | 67.6
sgRNA knockout: sgKEAP1, 1000 nM | 20
sgRNA knockout: sgKEAP1, 10000 nM | 12.4
sgRNA knockout: sgNFE2L2, 10 nM | 85.6
sgRNA knockout: sgNFE2L2, 100 nM | 98.2
sgRNA knockout: sgNFE2L2, 1000 nM | 20
sgRNA knockout: sgNFE2L2, 10000 nM | 9.15
sgRNA knockout: sgSLC35F2, 10 nM | 88.6
sgRNA knockout: sgSLC35F2, 100 nM | 77.4
sgRNA knockout: sgSLC35F2, 1000 nM | 19.2
sgRNA knockout: sgSLC35F2, 10000 nM | 9.66
sgRNA knockout: sgXBP1, 10 nM | 103
sgRNA knockout: sgXBP1, 100 nM | 88.5
sgRNA knockout: sgXBP1, 1000 nM | 19.7
sgRNA knockout: sgXBP1, 10000 nM | 12.5
